{
  "source": "PubChem BioAssay AID1918995",
  "about": "(Molecular Pharmacology Branch, DTP, NCI, 2023)",
  "test_system": "324938-238-R-J1-PDC complex spheroid growth, % test/control",
  "assay": "Anticancer human tumor 324938-238-R-J1-PDC patient-derived bladder carcinoma cell line growth inhibition [AhR]",
  "details": "active compounds read low",
  "from_the_text": "Multicellular complex tumor spheroid response to aryl hydrocarbon receptor antagonists in combination with a variety of drugs and investigational agents in selected tumor cell lines\nThe current study was undertaken to assess response to aryl hydrocarbon receptor antagonists in combination with standard-of-care drugs and investigational agents in solid tumor complex spheroid models. Complex spheroids include a stromal component modeled by human endothelial cells (HUVEC) and fibroblasts modeled by human mesenchymal stem cells (MSCs). The concentration ranges selected for each drug and investigational agent were based upon clinically achievable concentrations if the clinical Cmax of the agent was known.\nCompounds. The drugs and investigational agents: BAY 2416964 (NSC825713), GNF351 (NSC835774), CH-223191 (NSC835775), CPI-455 (NSC825282), aza-TdCyd (NSC777586), decitabine (NSC127716), belinostat (NSC758774), entinostat (NSC756642), pevonedistat (NSC761192), tazemetostat (NSC777109), talazoparib (NSC765396), olaparib (NSC753686), selinexor (NSC780203), nedisertib (M3814, NSC802822), bortezomib (NSC756655), venetoclax (NSC766270), doxorubicin (NSC123127), elimusertib (BAY189344, NSC800525), ceralasertib (AZD6738, NSC777638), TAK-243 (NSC785004), alisertib (NSC759677), etoposide (NSC141540), topotecan (NSC609699), eribulin (NSC707389), gemcitabine (NSC613327), carboplatin (NSC241240), cisplatin (NSC119875), and SN-38 (NSC673596) were obtained from the National Cancer Institute (NCI) Developmental Therapeutics Program Chemical Repository (32). The FDA-approved anticancer drug set is available from the Developmental Therapeutics Program at https://dtp.cancer.gov/organization/dscb/obtaining/available plates.htm. […] The stock solutions were prepared in dimethyl sulfoxide (DMSO, Sigma-Aldrich, St. Louis, MO, cat. D2650), except for the platinum compounds which were prepared in saline (Quality Biological, Gaithersburg, MD, cat. 114-055-101), at 800-fold the tested concentration and stored at -70 degrees C prior to their use. All drugs and investigational agents were tested over a range starting from a high concentration at or near the clinical Cmax and decreasing in half-log increments. If the clinical Cmax for an agent had not been determined, the highest concentration tested was 10 microM (Table 1).\nCell Culture. All cells were maintained in an incubator at 37 degrees C and 5% CO2 with 95% humidity. The PDC lines were cultured according to standard operating procedures established by the NCI PDMR (https://pdmr.cancer.gov). Briefly, all PDCs were thawed and cultured in Matrigel-coated flasks prepared with a working solution of 1X Ham's F-12 nutrient mix, without supplementation (Invitrogen, Waltham, MA, cat. 11765054), 100 U/mL penicillin-streptomycin (Invitrogen, cat. 15140122), and 2.5% Matrigel (Corning Inc., Corning, NY, cat. 354248) for the first three passages. All PDCs were cultured in complete DMEM/F-12 media containing advanced DMEM/F-12 (Invitrogen, cat. 12634028), 4.9% defined fetal bovine serum, heat inactivated (HyClone Laboratories Inc., Logan, UT, cat. SH30070.03HI), 389 ng/mL hydrocortisone (Sigma-Aldrich, cat. H4001), 9.7 ng/mL human EGF recombinant protein (Invitrogen, cat. PHG0313), 23.4 microg/mL adenine (Sigma-Aldrich, cat. A2786), 97.3 U/mL penicillin-streptomycin (Invitrogen, cat. 15140122), 1.9 mM L-glutamine (Invitrogen, cat. 25030081), and 9.7 microM Y-27632 dihydrochloride (Tocris Bioscience, Bristol, United Kingdom, cat. 1254). The PDCs were cultured in complete DMEM/F12 media without 10 microM Y-27632 dihydrochloride for at least two passages prior to the screen. The established cell lines NCI-H1341 and […] were cultured in DMEM/F-12, HEPES (Invitrogen, cat. 11330032), 5% defined fetal bovine serum (HyClone Laboratories Inc., cat. SH30070.03), ITS premix universal culture supplement [insulin (5 microg/mL), transferrin (5 microg/mL), and selenious acid (5 ng/mL)] […]",
  "note": "Where “and” joins values, the source holds several entries; their conditions need not be identical. Identical values can stand only once. This continues a long series; more values of the same kind are listed elsewhere.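 Also: spheroids exposed to agents for seven days before viability read.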",
  "data": [
    {"compound": "Cc1ccccc1N=Nc1ccc(NC(=O)c2ccnn2C)c(C)c1", "values": [
      {"measurement": "viability, T/C", "setting": "compound 0.1 µM", "result": "98.7% [middle of 4 runs]"},
      {"measurement": "viability, T/C", "setting": "compound 0.316 µM", "result": "89.4% [middle of 5 runs]"},
      {"measurement": "viability, T/C", "setting": "compound 1 µM", "result": "92.3% [middle of 4 runs]"},
      {"measurement": "viability, T/C", "setting": "compound 3.16 µM", "result": "81.4% [middle of 5 runs]"},
      {"measurement": "viability, T/C", "setting": "compound 10 µM", "result": "72.8% [middle of 5 runs]"}
    ]},
    {"compound": "Cc1cncc(-c2nc(NCCc3c[nH]c4ccccc34)c3ncn(C(C)C)c3n2)c1", "values": [
      {"measurement": "viability, T/C", "setting": "compound 0.1 µM", "result": "94.3% and 72.1% and 102%"},
      {"measurement": "viability, T/C", "setting": "compound 1 µM", "result": "102% [middle of 4 runs]"},
      {"measurement": "viability, T/C", "setting": "compound 10 µM", "result": "3.45% [middle of 4 runs]"}
    ]},
    {"compound": "CC(CO)NC(=O)c1cc(-c2ccc(Cl)cc2)nn(-c2cnn(C)c2)c1=O", "note": "(stereo not drawn)", "values": [
      {"measurement": "viability, T/C", "setting": "compound 0.1 µM", "result": "100% [middle of 4 runs]"},
      {"measurement": "viability, T/C", "setting": "compound 0.316 µM", "result": "92.5% and 104% and 103%"},
      {"measurement": "viability, T/C", "setting": "compound 1 µM", "result": "96.3% and 82.6% and 79.4%"},
      {"measurement": "viability, T/C", "setting": "compound 3.16 µM", "result": "74.7% [middle of 6 runs]"},
      {"measurement": "viability, T/C", "setting": "compound 10 µM", "result": "68.5% [middle of 5 runs]"}
    ]}
  ]
}
